These results are taken from PMC11605992.

Chains of the proteins cited; added tags and fusions are not shown.
UniProt P18850: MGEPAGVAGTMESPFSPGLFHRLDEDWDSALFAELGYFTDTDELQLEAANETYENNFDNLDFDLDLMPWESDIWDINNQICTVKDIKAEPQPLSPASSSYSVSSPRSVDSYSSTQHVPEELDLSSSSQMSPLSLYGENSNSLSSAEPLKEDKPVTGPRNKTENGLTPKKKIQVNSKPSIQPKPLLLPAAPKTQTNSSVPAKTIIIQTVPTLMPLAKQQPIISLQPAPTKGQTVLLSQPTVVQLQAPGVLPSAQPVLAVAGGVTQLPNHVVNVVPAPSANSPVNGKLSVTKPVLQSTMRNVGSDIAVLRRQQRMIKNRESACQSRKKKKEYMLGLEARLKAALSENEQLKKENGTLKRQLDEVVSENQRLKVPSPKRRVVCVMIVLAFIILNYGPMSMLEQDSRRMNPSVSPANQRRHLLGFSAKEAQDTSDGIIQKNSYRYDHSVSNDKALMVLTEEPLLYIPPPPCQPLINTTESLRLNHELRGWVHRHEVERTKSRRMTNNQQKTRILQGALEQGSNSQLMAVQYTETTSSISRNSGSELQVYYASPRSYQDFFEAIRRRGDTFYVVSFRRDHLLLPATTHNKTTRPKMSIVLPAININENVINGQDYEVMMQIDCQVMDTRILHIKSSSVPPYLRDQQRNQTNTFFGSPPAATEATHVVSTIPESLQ

No constants are given. Whether binding was seen depends on the method and setting. In cells and extracts the contact can be indirect. Some results given as binding are weak or reduced against the parent protein; the word gives no strength.

In experiment [1] the target is ATF6 (human (endogenous in CD4+ T cells)) (UniProt P18850). The experiment in a line: co-IP; PBMCs of healthy controls treated with tunicamycin (5 µg/ml, 1 h), CD4+ T cells sorted, lysate; resin coupled with ATF6 or MIF antibody, IgG as negative control; 4 °C overnight; Western blot.
Experiment [2] shares this target. As to the kind of experiment: condition: only cells of healthy controls not treated with tunicamycin; co-IP; PBMCs of healthy controls not treated with tunicamycin, CD4+ T cells sorted, lysate; resin coupled with ATF6 or MIF antibody, IgG as negative control; 4 °C overnight; Western blot. For orientation: A western blot detects proteins with antibodies after separation by electrophoresis.

For experiment [3] the target is unchanged. As to the kind of experiment: co-IP; lysate of CD4+ T cells of active RA patients; resin coupled with ATF6 antibody, IgG as negative control; 4 °C overnight; Western blot.

B1: macrophage migration inhibitory factor (protein, UniProt P14174 1-115)
chain: MPMFIVNTNVPRASVPDGFLSELTQQLAQATGKPPQYIAVHVVPDQLMAFGGSSEPCALCSLHSIGKIGGAQNRSYSKLLCGLLAERLRISPDRVYINYYDMNAANVGWNNSTFA
B1: the binding result in experiment [1] was “binds”; in experiment [2] it was “no binding”; in experiment [3], “binds”.
